{"sequences": {"note": "Sequences of proteins named here, by UniProt entry; tags and fusion partners are left off.", "UniProt Q0JBA9, entry or part of it": "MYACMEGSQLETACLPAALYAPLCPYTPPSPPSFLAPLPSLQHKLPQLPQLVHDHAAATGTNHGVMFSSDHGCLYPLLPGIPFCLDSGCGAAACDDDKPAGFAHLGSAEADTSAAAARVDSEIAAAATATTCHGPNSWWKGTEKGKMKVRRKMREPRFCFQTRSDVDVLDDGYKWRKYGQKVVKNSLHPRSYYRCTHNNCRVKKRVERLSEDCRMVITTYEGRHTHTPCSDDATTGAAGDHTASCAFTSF"}, "source": "paper PMC7819943", "about": "“Rice protein-binding microarrays: a tool to detect cis-acting elements near promoter regions in rice”", "note": "This is one part of the list."}
{"molecular_target": "OsWRKY34 (Oryza sativa, UniProt Q0JBA9 1-250)", "test": "protein-binding microarray (RPBM); PBS, 2% BSA, 51.3 ng/ul salmon testes DNA, 50 uM zinc acetate, 200 nM TF, 25 C, 1 h; high values mean tight binding", "settings": "protein: recombinant; tags: N-terminal polyhistidine and DsRed monomer fusion (pET32a); label: CyDye5-dUTP incorporated in the synthesized complementary strand; 3' TTTTT single-stranded linker to array surface; dsDNA, one strand shown", "how_it_was_run": "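Polyhistidine-tagged DsRed fusions of transcription factors, joined at the N-terminus, were expressed in E. coli BL21-CodonPlus and isolated on Ni–NTA. They were incubated at 200 nM for 1 h at 25 °C on a custom Agilent array, double-stranded and BSA-blocked, in PBS with 2% BSA, salmon testes DNA and 50 µM zinc acetate. The binding signal is per-feature fluorescence intensity (arbitrary units) read on an Axon 4000B scanner after washing.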"}
{"sequence": "CAATATTATTTAGTCTCTCGTTGATGTTGCACCCTAAATACGGAGTCACCTAGTGCAG", "binding signal": "8200 fluorescence intensity (a.u.)"}
{"sequence": "GACTGGGAATGGATTTTGTGTTTATTGACACTTCAGCTTACGGAGTCACCTAGTGCAG", "binding signal": "8040 fluorescence intensity (a.u.)"}
{"sequence": "CTTTTTATTTTCTTTTAGTGAAAACTATCGTTTTTATTTTCGGAGTCACCTAGTGCAG", "binding signal": "9310 fluorescence intensity (a.u.)"}
{"sequence": "ATCACCACACCACCCTGTATATTCCTCCTCTTCTTCTTCCCGGAGTCACCTAGTGCAG", "binding signal": "8400 fluorescence intensity (a.u.)"}
{"sequence": "GGCGGATTTCGGTTTCTTCGTGTGTTTGTTGGTTGCGTTGCGGAGTCACCTAGTGCAG", "binding signal": "12700 fluorescence intensity (a.u.)"}
{"sequence": "TGCATCTGTGGAACATCATTGTATATCATGCTCATGTATGCGGAGTCACCTAGTGCAG", "binding signal": "10100 fluorescence intensity (a.u.)"}
{"sequence": "GGGATTTAGCTGTTGGTGTAGTGGGTGGAAGGCTAGAAGGCGGAGTCACCTAGTGCAG", "binding signal": "8820 fluorescence intensity (a.u.)"}
{"sequence": "GGAACCCGTGCTACATGCCTACTAGTACACACTTGCATCACGGAGTCACCTAGTGCAG", "binding signal": "9720 fluorescence intensity (a.u.)"}
{"sequence": "CCAAACCTACACGTCCCAGTTCAGTCATTCATCCTGCTAGCGGAGTCACCTAGTGCAG", "binding signal": "9110 fluorescence intensity (a.u.)"}
{"sequence": "CCGCCGCCGTGAACTCGCCGTTCTTCCCGCCGCCGTCCTCCGGAGTCACCTAGTGCAG", "binding signal": "9080 fluorescence intensity (a.u.)"}
{"sequence": "TCCCTTCCTGGCGCTGTCAGCTTGTGGGGTCGGGATGTCACGGAGTCACCTAGTGCAG", "binding signal": "8340 fluorescence intensity (a.u.)"}
{"sequence": "CTCTTTCCTCTCCTTTCCGTCGCGCTGTTCGCTGCCTACACGGAGTCACCTAGTGCAG", "binding signal": "8860 fluorescence intensity (a.u.)"}
{"sequence": "CTCTCACTCGATTTTCTCACTCAAATTTACAGTGCATTTTCGGAGTCACCTAGTGCAG", "binding signal": "8350 fluorescence intensity (a.u.)"}
{"sequence": "ACTCCCGGCTAATAACATTAATCATCGCCAGTTTGATCTTCGGAGTCACCTAGTGCAG", "binding signal": "8260 fluorescence intensity (a.u.)"}
{"sequence": "TGCAGGCTTCCACCGCCCGCCTGTCATTGTCGCCCACTGCCGGAGTCACCTAGTGCAG", "binding signal": "8760 fluorescence intensity (a.u.)"}
{"sequence": "ACTACATCCGTCCCAAAATAATTGTAATTCTCTGTTGTTTCGGAGTCACCTAGTGCAG", "binding signal": "9570 fluorescence intensity (a.u.)"}
{"sequence": "TCTCCATGCTACCTTTGCTTGTCCTCCGTCGCTGGTGAAGCGGAGTCACCTAGTGCAG", "binding signal": "11000 fluorescence intensity (a.u.)"}
{"sequence": "GACGGTGGCCATTCTAATTCCTCTATTGCAGGGTCTAACTCGGAGTCACCTAGTGCAG", "binding signal": "8310 fluorescence intensity (a.u.)"}
{"sequence": "TCTTCTTCGTCTAATGGTCACACGGCATCGTTTTCGCTCGCGGAGTCACCTAGTGCAG", "binding signal": "8250 fluorescence intensity (a.u.)"}
{"sequence": "TCTATGCGTGGGCCCTGGTTTTCTTTGATTTCACCTACAGCGGAGTCACCTAGTGCAG", "binding signal": "8450 fluorescence intensity (a.u.)"}
{"sequence": "CGGGCCATATGTGACTCGAGCTCAAGTGTTTCTGCCATTTCGGAGTCACCTAGTGCAG", "binding signal": "8690 fluorescence intensity (a.u.)"}
{"sequence": "TCCCCTGGTAAATCTAGTCGTATTCTTCTTTTTTCGGGGACGGAGTCACCTAGTGCAG", "binding signal": "11800 fluorescence intensity (a.u.)"}
{"sequence": "CCATCATGAGCAACTTCACCAATCTCCACGTGATAATTTTCGGAGTCACCTAGTGCAG", "binding signal": "8960 fluorescence intensity (a.u.)"}
{"sequence": "GAGCTTGTTCCTGGTACATATACATATGCTGAGCTTTCCACGGAGTCACCTAGTGCAG", "binding signal": "8810 fluorescence intensity (a.u.)"}
{"sequence": "GCTATTGTACCTGCTCTAATGTGTACTCCCTCCGTCCCAACGGAGTCACCTAGTGCAG", "binding signal": "8590 fluorescence intensity (a.u.)"}
{"sequence": "TTTAACGTTTGACACCACTATACCGCAGACACTGACACTACGGAGTCACCTAGTGCAG", "binding signal": "8210 fluorescence intensity (a.u.)"}
{"sequence": "ACAGATTTTTCAAGGTGATTGCCTCAACTTTTTTTTCCGTCGGAGTCACCTAGTGCAG", "binding signal": "9120 fluorescence intensity (a.u.)"}
{"sequence": "AGAAGCTTTTTTTTAATCGCTTTTTTGTCGGACTTTTTTCCGGAGTCACCTAGTGCAG", "binding signal": "8380 fluorescence intensity (a.u.)"}
{"sequence": "AATCTGTGCAATTGGTTATTTTTTAGCCTATATTTAATATCGGAGTCACCTAGTGCAG", "binding signal": "8480 fluorescence intensity (a.u.)"}
{"sequence": "ACTTCGTTGATTTTTTTAAACATGTTTGATCATTCGTCTTCGGAGTCACCTAGTGCAG", "binding signal": "10700 fluorescence intensity (a.u.)"}
{"sequence": "GTTATGAAAATGATTTTGGTTGTTTTCCGCTCGTTTTATCCGGAGTCACCTAGTGCAG", "binding signal": "10000 fluorescence intensity (a.u.)"}
{"sequence": "ATTCATAAATTAATTTTCGTTGCTTTCTTCATTTTATTGTCGGAGTCACCTAGTGCAG", "binding signal": "10100 fluorescence intensity (a.u.)"}
{"sequence": "TGAGCACGGAAAACAAGTGACTTCTGTCTGTATCATGTCCCGGAGTCACCTAGTGCAG", "binding signal": "8490 fluorescence intensity (a.u.)"}
{"sequence": "CCGCTTCTTCTTCTTGTTTCCACCGAGCCCAAGCCGCCTTCGGAGTCACCTAGTGCAG", "binding signal": "11100 fluorescence intensity (a.u.)"}
{"sequence": "CTGCTACTGTGCTACTGTCCTACCGTGCTGTACCTTGCGTCGGAGTCACCTAGTGCAG", "binding signal": "8060 fluorescence intensity (a.u.)"}
{"sequence": "ATCTCTGTACCTTCACGCATCTTCAGTCCCAAGCAACCCCCGGAGTCACCTAGTGCAG", "binding signal": "8050 fluorescence intensity (a.u.)"}
{"sequence": "GTTACTTTCAACTAATACTACGTGCACATTCACTTTTTCTCGGAGTCACCTAGTGCAG", "binding signal": "8660 fluorescence intensity (a.u.)"}
{"sequence": "CATGTCATCAAGTGTACAAATTGCGTGTGTTTTTGTTTTTCGGAGTCACCTAGTGCAG", "binding signal": "8290 fluorescence intensity (a.u.)"}
{"sequence": "CAAATTCAGCTGTTGACCGGACTCCTGAAGCCTCTTCTCCCGGAGTCACCTAGTGCAG", "binding signal": "8820 fluorescence intensity (a.u.)"}
{"sequence": "GTTTTCTGCTGCCGACTTGGGTATTGACCTCCATATGCTCCGGAGTCACCTAGTGCAG", "binding signal": "9060 fluorescence intensity (a.u.)"}
{"sequence": "GGGAGGGCAATCTCGTCCGTTCGATCTCGCGGTAATGGTCCGGAGTCACCTAGTGCAG", "binding signal": "8360 fluorescence intensity (a.u.)"}
{"sequence": "TTGACTTTTGATCGACTCGCGTTGTATTTACCTGCCTACTCGGAGTCACCTAGTGCAG", "binding signal": "12100 fluorescence intensity (a.u.)"}
{"sequence": "CATCGACGCCCACGCCGCCGCACGCTAAACCCGCCCGCTCCGGAGTCACCTAGTGCAG", "binding signal": "9810 fluorescence intensity (a.u.)"}
{"sequence": "TCGCCTCGCCTCGCCTTCTAGCTCGCGGCCGCCGCTAGCGCGGAGTCACCTAGTGCAG", "binding signal": "9770 fluorescence intensity (a.u.)"}
{"sequence": "TCACAGGTGTGGGTGGGAAGACTTTGACTAGGGTTGGACTCGGAGTCACCTAGTGCAG", "binding signal": "9130 fluorescence intensity (a.u.)"}
{"sequence": "TTTCAGTCCATACTTTCCTGTATCTGACAACACATTTTTTCGGAGTCACCTAGTGCAG", "binding signal": "8830 fluorescence intensity (a.u.)"}
{"sequence": "ACTTATAGCTACACTCAGTTACTGCATCAAAATTAGATTTCGGAGTCACCTAGTGCAG", "binding signal": "8290 fluorescence intensity (a.u.)"}
{"sequence": "GTCCTCCATGAACAGTCCCACCGAGTTGTCTATTTACGTTCGGAGTCACCTAGTGCAG", "binding signal": "8860 fluorescence intensity (a.u.)"}
{"sequence": "CTCAATTTGGACCATCCATTTTCAATCCAACGGCGCGCGACGGAGTCACCTAGTGCAG", "binding signal": "8350 fluorescence intensity (a.u.)"}
{"sequence": "CATTCCTTGATCGTTCGTTCCCGCCGCGTCGCGACGTCGACGGAGTCACCTAGTGCAG", "binding signal": "8510 fluorescence intensity (a.u.)"}
{"sequence": "GACTAATGTGATTTTTTGCCAACCGGACAACTCTAGCAAACGGAGTCACCTAGTGCAG", "binding signal": "8540 fluorescence intensity (a.u.)"}
{"sequence": "GCATGATCCCAAAGGTGCACTCATCATCCTACTTATCCTTCGGAGTCACCTAGTGCAG", "binding signal": "10700 fluorescence intensity (a.u.)"}
{"sequence": "AACTTACCGCTCTCTATGTCCATGTCAACTATCCATGTTACGGAGTCACCTAGTGCAG", "binding signal": "12500 fluorescence intensity (a.u.)"}
{"sequence": "TTTATTTTGTTCGTGACTTCTTTTATTATCAAAATTACTTCGGAGTCACCTAGTGCAG", "binding signal": "8810 fluorescence intensity (a.u.)"}
